Results reported in article PMC10520872.
Results are given in words; binding and its absence hold for the method and conditions named. Some results given as binding are weak or reduced against the parent protein; the word gives no strength. Sequences can lack the tags named with a protein.

T1: Mst77F-V5 (male-specific transcript 77F, recombinant full-length with a C-terminal V5 tag) (Drosophila melanogaster) (UniProt P16909)
T1 sequence: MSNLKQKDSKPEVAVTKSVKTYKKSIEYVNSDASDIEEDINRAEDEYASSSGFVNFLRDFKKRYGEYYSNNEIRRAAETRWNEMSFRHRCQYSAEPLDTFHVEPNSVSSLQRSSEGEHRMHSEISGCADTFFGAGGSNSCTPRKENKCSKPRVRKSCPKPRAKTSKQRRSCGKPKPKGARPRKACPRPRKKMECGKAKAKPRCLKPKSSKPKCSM


Target: T1, Mst77F-V5 (male-specific transcript 77F, recombinant full-length with a C-terminal V5 tag) (Drosophila melanogaster)
Experiment: co-IP; co-immunoprecipitation of recombinant proteins with free Mst77F-V5 in solution (Fig. S1C); details in Supplementary Experimental Procedures; both purified

Row | binding | Binder
1 | binds | recombinant NLP (nucleoplasmin-like protein) (protein, UniProt Q27415 1-152) MAEESFYGVTLTAESDSVTWDVDEDYARGQKLVIKQILLGAEAKENEFNVVEVNTPKDSVQIPIAVLKAGETRAVNPDVEFYESKVTFKLIKGSGPVYIHGHNIKDDVEVVDMEEDDEEDDVAEDEEDEHPKKRAKIENAADGKNAKNNKKK
2 | binds | recombinant NAP1 (nucleosome assembly protein 1) (protein, UniProt Q9W1G7 1-370) MDAPAEGHVDPESCNEIEDEKSGSDCQSMPAYMNSVMRRQYLQQMVKMLPAPVQNRIVFLKNLQLQHLNIEAQFFEDVYKLEQKYQVQYQPLFDKRREIIEGKVDPAEEKPQWKEPESSTDNEADAEHFREALSSLKSIPKDAKGIPGFWLTVFRNTAIMSEMVQPHDEPAIRKLIDISIKYDNGHSYTLEFHFDKNEYFSNSVLTKQYVLKSTVDPNDPFAFEGPEIYKCTGCTINWEKKMNLTVKTIRKKQKHKERGAVRTIVKQVPTDSFFNFFSPPEVPSDQEEVDDDSQQILATDFEIGHFLRARIIPKAVLYYTGDIVDDEDDEDEEEYDENEEDEYDDDDAPPPKGPKSAGIKKQSPNDCPNQ
